Source: the supplement of paper PMC10849652
The other results are listed elsewhere or left out.

Protein sequences, listed by entry. Tags and fused reporters are not part of them. Lines headed by an entry give the natural chain unless they say otherwise; changes in a name come on top.
UniProt P12318: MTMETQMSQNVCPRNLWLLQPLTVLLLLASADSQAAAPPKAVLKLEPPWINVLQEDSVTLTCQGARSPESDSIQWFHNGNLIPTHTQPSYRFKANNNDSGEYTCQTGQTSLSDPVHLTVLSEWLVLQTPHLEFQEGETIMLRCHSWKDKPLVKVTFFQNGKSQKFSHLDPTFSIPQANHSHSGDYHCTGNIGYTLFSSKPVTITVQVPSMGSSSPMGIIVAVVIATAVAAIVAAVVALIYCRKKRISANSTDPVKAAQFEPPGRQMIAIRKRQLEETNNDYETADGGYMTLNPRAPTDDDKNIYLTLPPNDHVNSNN
UniProt Q9H0X4: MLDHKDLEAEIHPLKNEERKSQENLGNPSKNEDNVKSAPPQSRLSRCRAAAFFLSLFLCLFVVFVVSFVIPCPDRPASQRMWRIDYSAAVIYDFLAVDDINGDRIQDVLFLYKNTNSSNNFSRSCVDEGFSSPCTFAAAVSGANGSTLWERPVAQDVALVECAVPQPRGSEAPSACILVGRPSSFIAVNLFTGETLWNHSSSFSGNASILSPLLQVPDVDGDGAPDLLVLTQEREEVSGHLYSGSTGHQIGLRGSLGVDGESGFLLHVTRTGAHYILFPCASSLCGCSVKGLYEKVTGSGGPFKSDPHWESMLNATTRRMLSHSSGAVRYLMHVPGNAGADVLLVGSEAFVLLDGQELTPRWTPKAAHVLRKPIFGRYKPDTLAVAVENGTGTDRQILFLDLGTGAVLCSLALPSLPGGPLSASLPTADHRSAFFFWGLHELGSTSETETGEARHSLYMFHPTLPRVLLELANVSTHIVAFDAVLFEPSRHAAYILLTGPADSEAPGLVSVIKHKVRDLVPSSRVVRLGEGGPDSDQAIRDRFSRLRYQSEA
UniProt P35916, whole entry, looked up: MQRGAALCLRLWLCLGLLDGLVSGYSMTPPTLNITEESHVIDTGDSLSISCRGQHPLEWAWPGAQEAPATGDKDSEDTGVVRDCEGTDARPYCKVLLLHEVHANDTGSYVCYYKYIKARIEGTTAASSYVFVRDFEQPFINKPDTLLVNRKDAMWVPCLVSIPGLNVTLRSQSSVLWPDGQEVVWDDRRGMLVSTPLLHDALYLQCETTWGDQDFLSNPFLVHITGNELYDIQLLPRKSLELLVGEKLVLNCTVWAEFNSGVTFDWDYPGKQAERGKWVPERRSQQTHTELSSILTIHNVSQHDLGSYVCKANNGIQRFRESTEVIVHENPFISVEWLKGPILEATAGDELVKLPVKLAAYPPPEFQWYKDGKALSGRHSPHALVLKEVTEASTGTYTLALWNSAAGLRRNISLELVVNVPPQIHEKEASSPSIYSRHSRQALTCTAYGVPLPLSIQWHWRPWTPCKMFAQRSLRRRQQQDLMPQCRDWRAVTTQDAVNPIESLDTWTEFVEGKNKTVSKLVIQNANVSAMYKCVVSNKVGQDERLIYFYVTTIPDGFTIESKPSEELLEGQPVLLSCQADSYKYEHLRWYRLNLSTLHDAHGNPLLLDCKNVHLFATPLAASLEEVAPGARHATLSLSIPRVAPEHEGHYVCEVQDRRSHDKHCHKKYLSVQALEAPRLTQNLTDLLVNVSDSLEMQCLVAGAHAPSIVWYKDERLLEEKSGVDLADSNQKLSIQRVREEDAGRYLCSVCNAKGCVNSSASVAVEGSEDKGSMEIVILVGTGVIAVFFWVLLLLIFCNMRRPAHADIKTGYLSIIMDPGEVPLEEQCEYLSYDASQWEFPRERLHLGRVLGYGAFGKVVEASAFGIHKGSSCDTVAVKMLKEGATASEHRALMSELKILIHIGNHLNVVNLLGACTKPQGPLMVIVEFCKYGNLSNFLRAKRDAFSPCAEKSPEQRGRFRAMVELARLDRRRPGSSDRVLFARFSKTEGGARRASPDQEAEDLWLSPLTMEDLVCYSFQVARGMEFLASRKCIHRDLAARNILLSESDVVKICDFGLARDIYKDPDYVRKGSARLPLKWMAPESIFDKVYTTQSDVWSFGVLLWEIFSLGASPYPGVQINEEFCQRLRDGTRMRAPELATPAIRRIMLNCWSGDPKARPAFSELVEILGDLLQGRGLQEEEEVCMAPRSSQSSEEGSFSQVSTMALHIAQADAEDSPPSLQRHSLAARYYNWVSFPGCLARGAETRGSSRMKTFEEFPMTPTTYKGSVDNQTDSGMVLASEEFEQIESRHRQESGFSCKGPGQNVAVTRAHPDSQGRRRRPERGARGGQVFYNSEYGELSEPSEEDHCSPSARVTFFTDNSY
UniProt Q9NXK8: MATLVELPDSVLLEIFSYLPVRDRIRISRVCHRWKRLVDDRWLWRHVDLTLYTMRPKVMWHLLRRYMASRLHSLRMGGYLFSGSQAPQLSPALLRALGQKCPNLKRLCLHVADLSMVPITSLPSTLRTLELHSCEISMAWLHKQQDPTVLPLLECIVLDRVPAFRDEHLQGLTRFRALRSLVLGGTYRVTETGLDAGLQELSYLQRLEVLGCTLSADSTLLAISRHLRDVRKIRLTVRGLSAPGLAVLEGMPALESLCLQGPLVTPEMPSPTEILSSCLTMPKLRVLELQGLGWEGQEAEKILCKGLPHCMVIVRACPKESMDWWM
UniProt Q9UIM3: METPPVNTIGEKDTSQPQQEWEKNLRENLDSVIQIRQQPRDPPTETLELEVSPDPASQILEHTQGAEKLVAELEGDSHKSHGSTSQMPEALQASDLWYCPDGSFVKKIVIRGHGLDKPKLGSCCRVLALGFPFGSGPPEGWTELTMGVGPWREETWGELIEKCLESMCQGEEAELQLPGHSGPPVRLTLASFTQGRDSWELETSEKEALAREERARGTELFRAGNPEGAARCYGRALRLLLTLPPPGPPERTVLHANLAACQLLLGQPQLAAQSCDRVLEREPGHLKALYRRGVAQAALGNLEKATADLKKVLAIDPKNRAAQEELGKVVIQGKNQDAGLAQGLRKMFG
UniProt P10109: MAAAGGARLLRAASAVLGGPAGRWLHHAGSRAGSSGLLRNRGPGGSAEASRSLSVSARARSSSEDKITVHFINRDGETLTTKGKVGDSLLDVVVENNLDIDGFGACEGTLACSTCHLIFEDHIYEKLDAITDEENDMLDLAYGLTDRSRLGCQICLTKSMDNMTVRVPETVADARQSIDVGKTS
UniProt Q8TB52: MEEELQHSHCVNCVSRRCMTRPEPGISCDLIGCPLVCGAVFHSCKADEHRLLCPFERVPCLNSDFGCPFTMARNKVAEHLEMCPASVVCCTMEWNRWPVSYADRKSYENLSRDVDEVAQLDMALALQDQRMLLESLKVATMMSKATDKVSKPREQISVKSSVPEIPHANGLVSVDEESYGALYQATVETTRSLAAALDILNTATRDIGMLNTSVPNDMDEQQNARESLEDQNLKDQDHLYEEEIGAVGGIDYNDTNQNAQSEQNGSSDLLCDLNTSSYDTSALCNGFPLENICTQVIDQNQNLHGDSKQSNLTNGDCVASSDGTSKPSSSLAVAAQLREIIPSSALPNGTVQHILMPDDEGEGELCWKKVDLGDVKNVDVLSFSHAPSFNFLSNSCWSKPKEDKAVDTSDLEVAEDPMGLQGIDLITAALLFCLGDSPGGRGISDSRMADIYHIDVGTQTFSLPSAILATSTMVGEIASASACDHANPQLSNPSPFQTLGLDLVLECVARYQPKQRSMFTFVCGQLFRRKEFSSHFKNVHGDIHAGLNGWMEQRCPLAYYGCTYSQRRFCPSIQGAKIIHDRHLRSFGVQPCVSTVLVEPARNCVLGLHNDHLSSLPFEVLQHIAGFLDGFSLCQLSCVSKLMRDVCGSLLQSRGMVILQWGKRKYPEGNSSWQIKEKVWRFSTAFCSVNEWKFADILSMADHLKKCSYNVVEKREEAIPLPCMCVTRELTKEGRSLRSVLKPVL
UniProt Q8NB91: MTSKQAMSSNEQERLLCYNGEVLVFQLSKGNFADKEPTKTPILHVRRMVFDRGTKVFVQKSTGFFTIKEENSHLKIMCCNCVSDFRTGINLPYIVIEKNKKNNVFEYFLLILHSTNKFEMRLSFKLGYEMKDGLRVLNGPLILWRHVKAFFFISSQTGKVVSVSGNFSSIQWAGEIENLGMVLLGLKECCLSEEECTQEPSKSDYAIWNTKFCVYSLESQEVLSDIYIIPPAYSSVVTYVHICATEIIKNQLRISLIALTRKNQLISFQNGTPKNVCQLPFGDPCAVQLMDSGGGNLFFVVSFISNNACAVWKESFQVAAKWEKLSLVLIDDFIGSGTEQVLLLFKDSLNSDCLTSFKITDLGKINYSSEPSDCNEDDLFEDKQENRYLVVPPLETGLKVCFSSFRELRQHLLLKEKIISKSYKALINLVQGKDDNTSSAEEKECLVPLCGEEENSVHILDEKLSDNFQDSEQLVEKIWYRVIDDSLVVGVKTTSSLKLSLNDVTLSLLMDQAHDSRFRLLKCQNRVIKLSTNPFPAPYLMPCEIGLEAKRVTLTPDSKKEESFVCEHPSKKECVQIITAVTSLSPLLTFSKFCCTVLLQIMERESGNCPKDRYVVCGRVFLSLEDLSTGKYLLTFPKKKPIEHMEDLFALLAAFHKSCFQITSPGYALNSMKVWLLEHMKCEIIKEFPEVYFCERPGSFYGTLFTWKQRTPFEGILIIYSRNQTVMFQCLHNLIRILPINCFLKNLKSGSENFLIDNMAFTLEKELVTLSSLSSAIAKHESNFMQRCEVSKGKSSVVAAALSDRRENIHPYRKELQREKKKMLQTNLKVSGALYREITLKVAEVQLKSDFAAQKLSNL
UniProt Q13643: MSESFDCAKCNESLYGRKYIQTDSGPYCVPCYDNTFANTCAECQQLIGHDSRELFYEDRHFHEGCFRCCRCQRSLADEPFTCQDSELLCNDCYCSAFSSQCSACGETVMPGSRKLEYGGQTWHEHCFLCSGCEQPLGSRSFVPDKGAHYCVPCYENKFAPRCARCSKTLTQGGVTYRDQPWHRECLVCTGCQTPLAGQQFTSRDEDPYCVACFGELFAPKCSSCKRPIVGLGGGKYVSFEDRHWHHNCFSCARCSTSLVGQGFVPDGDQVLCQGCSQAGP
UniProt O95302: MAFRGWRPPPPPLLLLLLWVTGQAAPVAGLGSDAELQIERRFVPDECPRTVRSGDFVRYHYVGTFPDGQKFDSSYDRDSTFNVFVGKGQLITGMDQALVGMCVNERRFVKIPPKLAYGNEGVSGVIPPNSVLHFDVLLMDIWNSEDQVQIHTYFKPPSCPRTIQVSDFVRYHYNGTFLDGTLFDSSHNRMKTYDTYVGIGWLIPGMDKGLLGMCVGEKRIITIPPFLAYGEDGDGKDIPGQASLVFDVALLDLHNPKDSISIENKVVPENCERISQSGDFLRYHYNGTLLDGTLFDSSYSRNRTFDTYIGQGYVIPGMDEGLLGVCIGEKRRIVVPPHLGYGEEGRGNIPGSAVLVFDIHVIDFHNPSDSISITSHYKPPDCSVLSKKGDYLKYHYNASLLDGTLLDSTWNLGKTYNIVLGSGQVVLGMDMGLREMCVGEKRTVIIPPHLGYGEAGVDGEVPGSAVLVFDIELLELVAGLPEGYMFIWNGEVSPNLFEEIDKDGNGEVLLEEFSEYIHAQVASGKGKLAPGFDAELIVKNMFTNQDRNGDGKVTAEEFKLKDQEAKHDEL
UniProt Q9NUQ9: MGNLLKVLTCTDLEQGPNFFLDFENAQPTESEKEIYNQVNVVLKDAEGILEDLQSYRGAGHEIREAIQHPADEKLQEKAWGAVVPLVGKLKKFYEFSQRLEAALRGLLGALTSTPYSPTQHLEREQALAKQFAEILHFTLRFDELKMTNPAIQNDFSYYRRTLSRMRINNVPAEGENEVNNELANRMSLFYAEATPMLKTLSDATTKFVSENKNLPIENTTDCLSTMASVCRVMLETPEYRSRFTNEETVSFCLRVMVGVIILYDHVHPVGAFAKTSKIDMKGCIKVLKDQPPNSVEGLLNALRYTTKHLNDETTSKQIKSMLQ
UniProt Q9NYY8: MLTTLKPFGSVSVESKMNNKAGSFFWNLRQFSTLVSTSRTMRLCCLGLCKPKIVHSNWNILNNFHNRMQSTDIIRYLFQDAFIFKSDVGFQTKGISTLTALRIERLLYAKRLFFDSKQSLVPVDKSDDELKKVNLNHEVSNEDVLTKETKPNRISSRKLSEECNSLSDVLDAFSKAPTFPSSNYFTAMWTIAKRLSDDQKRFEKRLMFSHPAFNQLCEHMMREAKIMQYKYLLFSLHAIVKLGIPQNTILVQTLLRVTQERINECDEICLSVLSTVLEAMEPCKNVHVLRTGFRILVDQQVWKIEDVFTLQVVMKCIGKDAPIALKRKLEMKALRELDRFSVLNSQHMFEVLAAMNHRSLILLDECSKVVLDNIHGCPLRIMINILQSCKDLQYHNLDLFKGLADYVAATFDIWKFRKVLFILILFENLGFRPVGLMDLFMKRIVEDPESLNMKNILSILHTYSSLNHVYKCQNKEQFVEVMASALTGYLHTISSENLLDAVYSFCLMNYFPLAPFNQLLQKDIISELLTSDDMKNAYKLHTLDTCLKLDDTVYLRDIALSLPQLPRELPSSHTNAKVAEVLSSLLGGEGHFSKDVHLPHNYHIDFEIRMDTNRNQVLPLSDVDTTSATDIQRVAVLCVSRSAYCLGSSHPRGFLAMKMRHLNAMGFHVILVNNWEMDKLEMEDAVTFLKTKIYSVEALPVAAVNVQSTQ

Compound: CN(C)CC(=O)Nc1ccc2[nH]c(=O)c3ccccc3c2c1
Experiment: log2 fold change, soluble protein after heating vs DMSO (PISA); higher = thermal stabilisation; K562 cells, 10 uM, 30 min; active = over 0.2 and 3.5 SD of the protein, either way, in both replicates (recomputed)
Outline: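 Quantification of soluble protein used TMTpro 16plex LC-MS/MS, with channel sums equalised. Samples were the supernatant after 21,000xg for 90 min of pooled aliquots from K562 cells (2×10^6 cells/mL) treated with 10 μM compound for 30 min, heated for 3 min over 48°C-58°C, and extracted in PBS with 0.5% NP-40 at 4°C. Values, from duplicates, describe thermal stability against control samples on a log2 fold-change scale.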

log2 fold change, inactive:
FN3KRP (UniProt Q9HA64) -0.017, FCGR2A (UniProt P12318) -0.092, FKRP (UniProt Q9H9S5) -0.084, FDXR isoform 7 (UniProt P22570) 0.012, FIP1L1 (UniProt Q6UN15) -0.018, FAM234A (UniProt Q9H0X4) -0.042, FLNA (UniProt P21333) 0.029, FAM98A (UniProt Q8NCA5) -0.003, FLT4 (UniProt P35916) -0.029, FBXL12 (UniProt Q9NXK8) 0.106, FKBPL (UniProt Q9UIM3) -0.05, FDX1 (UniProt P10109) -0.009, FAM91A1 (UniProt Q658Y4) -0.003, FBXO30 (UniProt Q8TB52) -0.003, FBXO7 (UniProt Q9Y3I1) 0.029, FAM76B (UniProt Q5HYJ3) -0.168, FAM3A (UniProt P98173) 0.019, FANCB (UniProt Q8NB91) -0.064, FECH isoform 2 (UniProt P22830) 0.001, FHL3 (UniProt Q13643) -0.053, FKBP9 (UniProt O95302) 0.218, FAM49B (UniProt Q9NUQ9) 0.014, FASTKD2 (UniProt Q9NYY8) 0.032
